Test results taken from PMC6118821.
These are yes or no findings as the source states them, for the method shown.

By UniProt entry, the sequences of proteins in these tests, tags left out. Where a name states a change or a piece, a line headed by the entry shows the natural chain unless it says otherwise. Chains listed by the source or under a name are the forms on record and can include a tag or linker.
ScChd1(1-1305Δ57–88) (P32657, form named): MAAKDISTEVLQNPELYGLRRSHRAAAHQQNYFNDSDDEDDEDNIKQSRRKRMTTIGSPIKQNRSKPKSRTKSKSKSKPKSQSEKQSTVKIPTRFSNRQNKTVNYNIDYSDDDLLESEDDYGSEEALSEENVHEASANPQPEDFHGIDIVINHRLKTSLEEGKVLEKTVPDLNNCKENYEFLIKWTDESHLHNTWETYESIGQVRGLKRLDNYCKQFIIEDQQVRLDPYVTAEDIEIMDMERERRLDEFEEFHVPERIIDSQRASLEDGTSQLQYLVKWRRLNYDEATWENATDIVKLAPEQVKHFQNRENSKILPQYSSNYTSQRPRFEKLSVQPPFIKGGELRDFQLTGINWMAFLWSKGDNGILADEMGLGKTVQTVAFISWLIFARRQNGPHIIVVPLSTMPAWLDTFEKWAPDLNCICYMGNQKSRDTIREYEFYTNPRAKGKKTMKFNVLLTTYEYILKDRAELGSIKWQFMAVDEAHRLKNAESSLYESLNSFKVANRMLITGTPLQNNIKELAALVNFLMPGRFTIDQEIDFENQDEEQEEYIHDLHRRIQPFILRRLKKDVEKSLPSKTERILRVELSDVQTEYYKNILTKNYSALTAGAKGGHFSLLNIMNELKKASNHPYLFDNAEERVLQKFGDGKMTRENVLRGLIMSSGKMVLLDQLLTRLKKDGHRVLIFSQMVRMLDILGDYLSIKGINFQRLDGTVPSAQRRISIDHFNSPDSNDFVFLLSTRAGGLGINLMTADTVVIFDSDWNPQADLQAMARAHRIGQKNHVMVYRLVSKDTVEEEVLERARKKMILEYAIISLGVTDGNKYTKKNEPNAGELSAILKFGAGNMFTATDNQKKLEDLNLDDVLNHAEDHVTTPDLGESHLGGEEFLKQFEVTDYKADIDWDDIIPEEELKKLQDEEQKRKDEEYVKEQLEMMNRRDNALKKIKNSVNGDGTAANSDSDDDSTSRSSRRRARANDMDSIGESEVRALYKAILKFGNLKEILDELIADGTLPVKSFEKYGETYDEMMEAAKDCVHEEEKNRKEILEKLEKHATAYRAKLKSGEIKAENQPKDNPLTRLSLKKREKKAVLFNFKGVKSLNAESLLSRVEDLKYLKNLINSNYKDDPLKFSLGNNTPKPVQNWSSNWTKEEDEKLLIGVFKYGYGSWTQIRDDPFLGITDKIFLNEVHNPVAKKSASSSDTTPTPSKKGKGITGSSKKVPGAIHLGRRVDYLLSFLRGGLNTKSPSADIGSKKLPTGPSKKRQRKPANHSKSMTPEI

Target: ScChd1(1-1305Δ57–88) (S. cerevisiae) (UniProt P32657)
Experiment: cryo-EM structure; 2:1 complex of ScChd1(1-1305Δ57–88) and a nucleosome with symmetrical 14 bp linkers, ADP-BeFx; envelope at 10-11 Å, two Chd1 and a nucleosome rigid-body docked; both purified

## ScChd1(1-1305Δ57–88) (from UniProt P32657 1-1305) (enzyme)
  binding: no binding
